Some entries share one result that the patent states for a list of compounds.
How the values were obtained:
Format in all cases: in vivo
Myzus persicae [1] = test: Test Example 2: pesticidal effect against Myzus persicae, cabbage leaf disk, 0.156 ppm; conditions: first instar larvae on cabbage leaf disk, three days, 25° C.
Myzus persicae [2] = test: Test Example 1: pesticidal effect against Myzus persicae, cabbage leaf disk, 20 ppm; conditions: first instar larvae on cabbage leaf disk, three days, 25° C.
Plutella xylostella = test: Test Example 3: pesticidal effect against Plutella xylostella, cabbage leaf disk; conditions: 500 ppm; second instar larvae on cabbage leaf disk; three days after treatment, 25° C.
[3] = tested on: Trigonotylus caelestialium; test: Test Example 5: pesticidal effect against Trigonotylus caelestialium, wheat seedling immersion; conditions: 100 ppm; second instar larvae on immersed wheat seedling; three days after treatment, 25° C.

Structure (SMILES) | death rate of larvae (Myzus persicae [1]) | death rate of larvae (Myzus persicae [2]) | death rate of larvae (Plutella xylostella) | death rate of larvae [3]
CC1(COC(=O)C2CC2(F)F)C(OC(=O)C2CC2(F)F)CCC2(C)C1CC(OC(=O)C1CC1(F)F)C1(C)Oc3cc(-c4cccnc4)oc(=O)c3C(O)C21 (mixture of isomers) [Compound 250] | not less than 80% | not less than 80% | not less than 80% | 
CCC(=O)OCC1(C)C(OC(=O)CC)CCC2(C)C1CC(OC(=O)CC)C1(C)Oc3cc(-c4cccnc4)oc(=O)c3C(O)C21 (stereo not drawn) [Compound 76] | not less than 80% | not less than 80% | not less than 80% | 
CCC(=O)OCC1(C)C(OC(=O)CC)CCC2(C)C1CC(OC(=O)C1CC1)C1(C)Oc3cc(-c4cccnc4)oc(=O)c3C(O)C21 (stereo not drawn) [Compound 213] | not less than 80% | not less than 80% | not less than 80% | 
CC1(COC(=O)C2CC2)C(OC(=O)C2CC2)CCC2(C)C1CC(OC(=O)C1CC1)C1(C)Oc3cc(-c4cccnc4)oc(=O)c3C(O)C21 (stereo not drawn) [Compound 218] | not less than 80% | not less than 80% | not less than 80% | not less than 80%
CC1(COC(=O)C2CCC2)C(OC(=O)C2CCC2)CCC2(C)C1CC(OC(=O)C1CCC1)C1(C)Oc3cc(-c4cccnc4)oc(=O)c3C(O)C21 (stereo not drawn) [Compound 219] | not less than 80% | not less than 80% |  | 
CCC(=O)OCC1(C)C(OC(=O)CC)CCC2(C)C1CC(OC(=O)c1cnccc1C(F)(F)F)C1(C)Oc3cc(-c4cccnc4)oc(=O)c3C(O)C21 (stereo not drawn) [Compound 222] | not less than 80% | not less than 80% |  | 
CCC(=O)OCC1(C)C(OC(=O)CC)CCC2(C)C1CC(OC(=O)c1ccncc1F)C1(C)Oc3cc(-c4cccnc4)oc(=O)c3C(O)C21 (stereo not drawn) [Compound 227] | not less than 80% | not less than 80% |  | 
CCC(=O)OCC1(C)C(OC(=O)CC)CCC2(C)C1CC(OC(=O)c1ccncc1Cl)C1(C)Oc3cc(-c4cccnc4)oc(=O)c3C(O)C21 (stereo not drawn) [Compound 228] | not less than 80% | not less than 80% |  | 
CCC(=O)OCC1(C)C(OC(=O)CC)CCC2(C)C1CC(OC(=O)c1ncccc1C)C1(C)Oc3cc(-c4cccnc4)oc(=O)c3C(O)C21 (stereo not drawn) [Compound 229] | not less than 80% | not less than 80% |  | 
CCCOc1cccnc1C(=O)OC1CC2C(C)(COC(=O)CC)C(OC(=O)CC)CCC2(C)C2C(O)c3c(cc(-c4cccnc4)oc3=O)OC12C (stereo not drawn) [Compound 231] | not less than 80% | not less than 80% |  | 
CCC(=O)OCC1(C)C(OC(=O)CC)CCC2(C)C1CC(OC(=O)c1ccc(F)nc1)C1(C)Oc3cc(-c4cccnc4)oc(=O)c3C(O)C21 (stereo not drawn) [Compound 232] | not less than 80% | not less than 80% |  | 
CC1(COC(=O)C2CCCC2)C(OC(=O)C2CCCC2)CCC2(C)C1CC(OC(=O)C1CCCC1)C1(C)Oc3cc(-c4cccnc4)oc(=O)c3C(O)C21 (stereo not drawn) [Compound 233] | not less than 80% | not less than 80% |  | 
CC1(COC(=O)CC2CC2)C(OC(=O)CC2CC2)CCC2(C)C1CC(OC(=O)CC1CC1)C1(C)Oc3cc(-c4cccnc4)oc(=O)c3C(O)C21 (stereo not drawn) [Compound 237] | not less than 80% | not less than 80% | not less than 80% | 
CCC(=O)OCC1(C)C(OC(=O)CC)CCC2(C)C1CC(OC(=O)c1cnccc1C)C1(C)Oc3cc(-c4cccnc4)oc(=O)c3C(O)C21 (stereo not drawn) [Compound 239] | not less than 80% | not less than 80% |  | 
CCC(=O)OCC1(C)C(OC(=O)CC)CCC2(C)C1CC(OC(=O)c1cnccc1Cl)C1(C)Oc3cc(-c4cccnc4)oc(=O)c3C(O)C21 (stereo not drawn) [Compound 240] | not less than 80% | not less than 80% |  | 
CCC(=O)OCC1(C)C(OC(=O)CC)CCC2(C)C1CC(OC(=O)c1cc3sccc3nc1C(F)(F)F)C1(C)Oc3cc(-c4cccnc4)oc(=O)c3C(O)C21 (stereo not drawn) [Compound 242] | not less than 80% | not less than 80% |  | 

Structure (SMILES) | death rate of larvae (Myzus persicae [1]) | death rate of larvae (Myzus persicae [2]) | death rate of larvae (Plutella xylostella) | death rate of larvae [3]
CCC(=O)OCC1(C)C(OC(=O)CC)CCC2(C)C1CC(OC(=O)c1ccccc1[N+](=O)[O-])C1(C)Oc3cc(-c4cccnc4)oc(=O)c3C(O)C21 (stereo not drawn) [Compound 246] | not less than 80% | not less than 80% |  | 
CCC(=O)OCC1(C)C(OC(=O)CC)CCC2(C)C1CC(OC(=O)c1cccnc1Cl)C1(C)Oc3cc(-c4cccnc4)oc(=O)c3C(O)C21 (stereo not drawn) [Compound 247] | not less than 80% | not less than 80% |  | 
CCC(=O)OCC1(C)C(OC(=O)CC)CCC2(C)C1CC(OCOC)C1(C)Oc3cc(-c4cccnc4)oc(=O)c3C(O)C21 (stereo not drawn) [Compound 249] | not less than 80% | not less than 80% |  | 
CCC(=O)OCC1(C)C(OC(=O)CC)CCC2(C)C1CC(OC(=O)c1ncc(F)cc1F)C1(C)Oc3cc(-c4cccnc4)oc(=O)c3C(O)C21 (stereo not drawn) [Compound 252] | not less than 80% | not less than 80% |  | 
CCC(=O)OCC1(C)C(OC(=O)CC)CCC2(C)C1CC(OC(=O)c1cnccn1)C1(C)Oc3cc(-c4cccnc4)oc(=O)c3C(O)C21 (stereo not drawn) [Compound 253] | not less than 80% | not less than 80% |  | 
CCC(=O)OCC1(C)C(OC(=O)CC)CCC2(C)C1CC(OC(=O)c1ccc(C)nc1)C1(C)Oc3cc(-c4cccnc4)oc(=O)c3C(O)C21 (stereo not drawn) [Compound 256] | not less than 80% | not less than 80% |  | 
CCC(=O)OCC1(C)C(OC(=O)CC)CCC2(C)C1CC(OC(=O)c1cccc(F)n1)C1(C)Oc3cc(-c4cccnc4)oc(=O)c3C(O)C21 (stereo not drawn) [Compound 258] | not less than 80% | not less than 80% |  | 
CC1(COC(=O)C2CC2)C(OC(=O)C2CC2)CCC2(C)C1CC(O)C1(C)Oc3cc(-c4cccnc4)oc(=O)c3C(O)C21 (stereo not drawn) [Compound 261] | not less than 80% | not less than 80% |  | not less than 80%
CCC(=O)OCC1(C)C(OC(=O)CC)CCC2(C)C1CC(OC(=O)c1cccc(C#N)c1)C1(C)Oc3cc(-c4cccnc4)oc(=O)c3C(O)C21 (stereo not drawn) [Compound 264] | not less than 80% | not less than 80% |  | 
CCC(=O)OCC1(C)C(OC(=O)CC)CCC2(C)C1CC(OC(=O)c1cccc(C(F)(F)F)c1)C1(C)Oc3cc(-c4cccnc4)oc(=O)c3C(O)C21 (stereo not drawn) [Compound 265] | not less than 80% | not less than 80% |  | 
CCC(=O)OCC1(C)C(OC(=O)CC)CCC2(C)C1CC(OC(=O)Cc1ccccn1)C1(C)Oc3cc(-c4cccnc4)oc(=O)c3C(O)C21 (stereo not drawn) [Compound 266] | not less than 80% | not less than 80% |  | 
CCC(=O)OCC1(C)C(OC(=O)CC)CCC2(C)C1CC(OC(=O)Cc1cccnc1)C1(C)Oc3cc(-c4cccnc4)oc(=O)c3C(O)C21 (stereo not drawn) [Compound 267] | not less than 80% | not less than 80% |  | 
CC1(COC(=O)C2CC2)C(OC(=O)C2CC2)CCC2(C)C1CC(OC(=O)c1ccccc1C#N)C1(C)Oc3cc(-c4cccnc4)oc(=O)c3C(O)C21 (stereo not drawn) [Compound 269] | not less than 80% | not less than 80% |  | 
CC1(COC(=O)C2CC2)C(OC(=O)C2CC2)CCC2(C)C1CC(OC(=O)c1cnccc1C(F)(F)F)C1(C)Oc3cc(-c4cccnc4)oc(=O)c3C(O)C21 (stereo not drawn) [Compound 270] | not less than 80% | not less than 80% |  | 
CC1(COC(=O)C2CC2)C(OC(=O)C2CC2)CCC2(C)C1CC(OC(=O)c1ncccc1Cl)C1(C)Oc3cc(-c4cccnc4)oc(=O)c3C(O)C21 (stereo not drawn) [Compound 271] | not less than 80% | not less than 80% |  | 
